This is one part of the list. Shown are side measurements of this screen, not its main read-out; they come without a call. The list favours compounds with an active or inconclusive main result. Words in brackets tell the shape of the fitted curve; partial curves, single points and poor fits give uncertain potencies.
Experiment: qHTS Assay for Lipid Storage Modulators in Drosophila S3 Cells;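 on cell number change: cells counted by Cell Tracker Red CMTPX staining in the red channel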
Settings: BODIPY lipid droplet fluorescence, 18-24 h; for cell number change: measured here: cell count max response, cells fed with added oleic acid
How it was run: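 Laser-scanning cytometry quantifies lipid droplet accumulation (500–530 nm total intensity; droplet/cell object ratio) in oleic acid-fed (400 uM added) Drosophila S3 cells treated with a concentration series. 20 uM Triacsin C defined 100% inhibition.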

[1] = measured here: lipid fluorescence (Fed channel) AC50, cells fed with added oleic acid
[2] = measured here: cell number channel AC50, cells fed with added oleic acid

SMILES | cell number change [%] | AC50 [1] | AC50 [2]
O=C(Nc1ccccc1[N+](=O)[O-])C1C(c2ccccc2)=C1c1ccccc1 | -11.6 | 29.1 µM [falling, single point] | 
CC(=O)c1cn(CC(=O)Nc2ccccc2F)c2ccccc12 | 10.5 |  | 
CCCCOC(=O)c1ccc(NC(=O)Nc2ccc(OC)c(OC)c2)cc1 | -2.42 | 0.651 µM [rising, single point] | 0.92 µM [rising, full curve]
Cc1ccc(C(C)C)cc1S(=O)(=O)Nc1cccnc1 | -18.5 | 0.461 µM [falling, full curve, poor fit] | 
CSc1ncccc1C(=O)NNc1cc(Cl)ccc1Cl | -5.47 | 0.517 µM [falling, single point] | 0.00461 µM [falling, full curve, poor fit]
Cc1nn(C)cc1C(=O)Nc1cc(Oc2ccc(Cl)cc2)cc([N+](=O)[O-])c1 | -42.5 |  | 
CCOc1cc(/C=C(\C#N)C(=O)Nc2ccccc2C(=O)O)ccc1OC(=O)c1ccc(C)cc1 | 9.26 | 20.6 µM [rising, partial curve] | 
COc1ccc(/C=N/NC(=O)CSCc2ccc([N+](=O)[O-])cc2)cc1OC |  | 0.517 µM [rising, partial curve, poor fit] | 
CC1(OC(=O)C2CCCC2)C(=O)C=C2C=C(c3ccsc3)N(CCc3c[nH]c4ccccc34)C=C2C1=O (configuration not stated) | -3.3 | 0.092 µM [falling, full curve, poor fit] | 
COc1cc(NC(=O)COC(=O)c2nc3nc(C)cc(C)n3n2)cc(OC)c1 | -27.7 | 29.1 µM [falling, single point] | 
COc1ccc(CC(=O)Nc2ccc(-c3cn4ccccc4n3)cc2)cc1OC | -35 | 25.9 µM [falling, single point] | 13 µM [falling, partial curve, poor fit]
CC1(C)CC(=O)C=C(C(=O)N2CCCC(C(=O)c3cccc(C(F)(F)F)c3)C2)O1 (configuration not stated) |  | 6.51 µM [rising, single point] | 
O=C(CCC(=O)OCCCC(F)(F)C(F)(F)F)Nc1ccc(Cl)cc1Cl | -71.8 |  | 29.1 µM [falling, single point]
COc1ccc(C(=O)NCCS(=O)(=O)NCc2ccccc2)cc1 |  |  | 6.51 µM [rising, partial curve, poor fit]
CC(OC(=O)c1ccc2ncsc2c1)C(=O)Nc1cccc(Cl)c1 (configuration not stated) | 23.1 | 16.4 µM [rising, partial curve, poor fit] | 
C=CCNc1cc(N2CCCC2)ccc1[N+](=O)[O-] | 24.3 |  | 0.058 µM [rising, full curve, poor fit]
CCN(CC(=O)Nc1cc(Cl)ccc1C)C(=O)CCc1nc2ccccc2c(=O)[nH]1 | -7.02 | 6.51 µM [rising, partial curve, poor fit] | 
COc1ncnc2c1N=C1CC(C)(C)CC(N)=C1S2 | -127 |  | 20.6 µM [falling, partial curve]
COCCNC(=O)c1onc(CSc2cc(C)ccc2C)c1C(=O)O | 156 | 18.4 µM [rising, partial curve] | 16.4 µM [rising, partial curve]

Complete entries as entered above.
`COc1ccc(/C=N/NC(=O)CSCc2ccc([N+](=O)[O-])cc2)cc1OC` reads AC50 [1]: 0.517 µM [rising, partial curve, poor fit]
`C=CCNc1cc(N2CCCC2)ccc1[N+](=O)[O-]` reads cell number change [%]: 24.3; AC50 [2]: 0.058 µM [rising, full curve, poor fit]
`COc1cc(NC(=O)COC(=O)c2nc3nc(C)cc(C)n3n2)cc(OC)c1` reads cell number change [%]: -27.7; AC50 [1]: 29.1 µM [falling, single point]

Carrying on:

SMILES | cell number change [%] | AC50 [1] | AC50 [2]
O=c1[nH][nH]cc1C=NCc1cccnc1 | 3.64 | 1.84 µM [rising, partial curve] | 
Cn1ccc(C(=O)OCC(=O)Nc2ccccc2Cl)n1 | 23 | 14.6 µM [rising, single point] | 
CCOc1ccc(/C=N/NC(=O)C(O)c2ccccc2)c(O)c1 (configuration not stated) | -12.9 |  | 
COC(=O)c1c(NC(=O)CN2CCN(c3ccccc3)CC2)c2c(C)cccc2n1C | 13.1 |  | 
CC(C)(C)OC(=O)N1CCC[C@H]1C(=O)Nc1ccc(S(=O)(=O)C(F)F)cc1 | -1.39 |  | 
Cc1cc(C)nc(/N=C(\N)Nc2ccc(SC(F)F)cc2)n1 | 11 | 14.6 µM [falling, single point] | 
COc1ccc(C(=O)N2CCN(c3ncccn3)CC2)cc1S(=O)(=O)N1CCOCC1 | -25 | 0.00461 µM [falling, full curve, poor fit] | 0.00461 µM [falling, full curve, poor fit]
CC(=O)c1ccc(N2CCN(C(=O)c3ccc(Br)cc3)CC2)c(F)c1 |  | 32.6 µM [rising, partial curve, poor fit] | 6.51 µM [falling, single point]
O=C(NCc1ccc(F)cc1)C1CCCN(C(=O)Nc2ccc(F)cc2)C1 (configuration not stated) | 6.72 | 6.51 µM [rising, single point] | 
Cc1cccc(N2CCN(C(=O)CCCn3c(=S)[nH]c4cc5c(cc4c3=O)OCO5)CC2)c1C | -35.2 | 16.4 µM [falling, single point] | 32.6 µM [falling, single point]
Cc1nnc(SC2CC(=O)N(c3ccccc3)C2=O)s1 (configuration not stated) | -79.3 | 29.1 µM [falling, single point] | 29.1 µM [falling, single point]
Cc1cc(C)c2[nH]c(O)c(N=NC(=O)c3cc4c(s3)CCCC4)c2c1 | 2.67 | 29.1 µM [rising, single point] | 
COc1ccc2cc3cc(C(=O)NCc4ccco4)oc3nc2c1 |  | 0.58 µM [rising, single point] | 0.366 µM [rising, full curve]
CC(C)(C)NC(=O)c1cc(-c2ccc3c(c2)OCO3)nc2ccccc12 | 17.3 | 2.91 µM [rising, single point] | 
CCc1ccc(N(CC(=O)NCc2ccc3c(c2)OCO3)C(=O)c2csnn2)cc1 | 19.4 | 29.1 µM [rising, single point] | 
C/C(CC(=O)Nc1ccc(Cl)cc1)=N\NC(=O)C(=O)N1CCCCC1 | 0.716 |  | 
CCc1ccc(NC(=S)Nn2cnnc2)cc1 | -7.71 |  | 
CCCCOC(C)n1cc(F)c(=O)[nH]c1=O (configuration not stated) | 9.52 | 4.61 µM [falling, full curve, poor fit] | 
COc1ccc(C)cc1S(=O)(=O)NCCc1ccccc1 |  | 5.8 µM [falling, full curve] | 

Reference: PubChem BioAssay AID2685 (National Center for Advancing Translational Sciences (NCATS), 2010)
